Test results: article PMC5762833
These are yes or no findings as the source states them, for the method shown. For some of these results: A result given as binding can be weak or reduced; the word gives no strength. Values belong to the binder of their own block, whether it stands above or below them.

The chains behind the UniProt entries cited, without tags or fusion partners. Where a name states a change or a piece, a line headed by the entry shows the natural chain unless it says otherwise.
UniProt P24557: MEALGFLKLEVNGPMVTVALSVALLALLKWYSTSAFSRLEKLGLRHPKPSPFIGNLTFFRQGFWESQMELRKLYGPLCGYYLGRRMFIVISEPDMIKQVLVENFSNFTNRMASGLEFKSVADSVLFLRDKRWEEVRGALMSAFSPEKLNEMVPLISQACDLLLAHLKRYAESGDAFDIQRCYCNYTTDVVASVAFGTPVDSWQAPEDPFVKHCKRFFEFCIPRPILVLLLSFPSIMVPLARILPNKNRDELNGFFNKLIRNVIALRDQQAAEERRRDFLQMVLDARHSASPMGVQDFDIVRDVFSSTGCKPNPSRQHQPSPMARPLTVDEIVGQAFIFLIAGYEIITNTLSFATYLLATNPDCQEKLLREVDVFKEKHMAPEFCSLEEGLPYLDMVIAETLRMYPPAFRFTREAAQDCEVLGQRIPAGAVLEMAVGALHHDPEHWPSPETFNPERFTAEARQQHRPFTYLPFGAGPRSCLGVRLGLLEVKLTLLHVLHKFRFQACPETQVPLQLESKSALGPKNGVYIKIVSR

Assays:
[1] = biological target: Human thromboxane synthase (TBXAS1) (human) (UniProt P24557); assay: condition: micromolar concentrations (50 nM to 5 μM injected); SPR; Biacore 3000; TBXAS1 amine-coupled to a CM5 chip (about 7,500 RU); analytes 50 nM to 5 μM injected for 10 min at 5 μL/min; control channel without protein; both purified
[2] = biological target: Human thromboxane synthase (TBXAS1) (human) (UniProt P24557); assay: SPR; as a2, with isatin added to the analyte samples at a final concentration of 100 μM and incubated for 15 min; both purified

B2: ferrochelatase (FECH) (enzyme, UniProt P22830 55-423)
chain: GAKPQVQPQKRKPKTGILMLNMGGPETLGDVHDFLLRLFLDRDLMTLPIQNKLAPFIAKRRTPKIQEQYRRIGGGSPIKIWTSKQGEGMVKLLDELSPNTAPHKYYIGFRYVHPLTEEAIEEMERDGLERAIAFTQYPQYSCSTTGSSLNAIYRYYNQVGRKPTMKWSTIDRWPTHHLLIQCFADHILKELDHFPLEKRSEVVILFSAHSLPMSVVNRGDPYPQEVSATVQKVMERLEYCNPYRLVWQSKVGPMPWLGPQTDESIKGLCERGRKNILLVPIAFTSDHIETLYELDIEYSQVLAKECGVENIRRAESLNGNPLFSKALADLVHSHIQSNELCSKQLTLSCPLCVNPVCRETKSFFTSQQL
binding [1]: no binding

B3: RAB27B (protein, UniProt O00194 1-218)
chain: MTDGDYDYLIKLLALGDSGVGKTTFLYRYTDNKFNPKFITTVGIDFREKRVVYNAQGPNGSSGKAFKVHLQLWDTAGQERFRSLTTAFFRDAMGFLLMFDLTSQQSFLNVRNWMSQLQANAYCENPDIVLIGNKADLPDQREVNERQARELADKYGIPYFETSAATGQNVEKAVETLLDLIMKRMEQCVEKTQIPDTVNGGNSGNLDGEKPPEKKCIC
binding [1]: no binding

B4: aldosterone synthase (CYP11B2) (enzyme, UniProt P19099 25-503)
chain: GTRAARAPRTVLPFEAMPQHPGNRWLRLLQIWREQGYEHLHLEMHQTFQELGPIFRYNLGGPRMVCVMLPEDVEKLQQVDSLHPCRMILEPWVAYRQHRGHKCGVFLLNGPEWRFNRLRLNPDVLSPKAVQRFLPMVDAVARDFSQALKKKVLQNARGSLTLDVQPSIFHYTIEASNLALFGERLGLVGHSPSSASLNFLHALEVMFKSTVQLMFMPRSLSRWISPKVWKEHFEAWDCIFQYGDNCIQKIYQELAFNRPQHYTGIVAELLLKAELSLEAIKANSMELTAGSVDTTAFPLLMTLFELARNPDVQQILRQESLAAAASISEHPQKATTELPLLRAALKETLRLYPVGLFLERVVSSDLVLQNYHIPAGTLVQVFLYSLGRNAALFPRPERYNPQRWLDIRGSGRNFHHVPFGFGMRQCLGRRLAEAEMLLLLHHVLKHFLVETLTQEDIKMVYSFILRPGTSPLLTFRAIN
binding [2]: binds

B5: adrenodoxin (ADX) (protein, UniProt P10109 61-184)
chain: SSSEDKITVHFINRDGETLTTKGKVGDSLLDVVVENNLDIDGFGACEGTLACSTCHLIFEDHIYEKLDAITDEENDMLDLAYGLTDRSRLGCQICLTKSMDNMTVRVPETVADARQSIDVGKTS
binding [1]: no binding

B7: NADPH-adrenodoxin reductase (ADR) (enzyme, UniProt P22570 33-491)
chain: STQEKTPQICVVGSGPAGFYTAQHLLKHPQAHVDIYEKQPVPFGLVRFGVAPDHPEVKNVINTFTQTAHSGRCAFWGNVEVGRDVTVPELREAYHAVVLSYGAEDHRALEIPGEELPGVCSARAFVGWYNGLPENQELEPDLSCDTAVILGQGNVALDVARILLTPPEHLERTDITKAALGVLRQSRVKTVWLVGRRGPLQVAFTIKELREMIQLPGARPILDPVDFLGLQDKIKEVPRPRKRLTELLLRTATEKPGPAEAARQASASRAWGLRFFRSPQQVLPSPDGRRAAGVRLAVTRLEGVDEATRAVPTGDMEDLPCGLVLSSIGYKSRPVDPSVPFDSKLGVIPNVEGRVMDVPGLYCSGWVKRGPTGVIATTMTDSFLTGQMLLQDLKAGLLPSGPRPGYAAIQALLSSRGVRPVSFSDWEKLDAEEVARGQGTGKPREKLVDPQEMLRLLGH
binding [1]: no binding

The remaining lines, values ahead:

binding [1]: no binding
B1: steroid-11β-hydroxylase (CYP11B1) (enzyme, UniProt P15538 25-503)
chain: GTRAARVPRTVLPFEAMPRRPGNRWLRLLQIWREQGYEDLHLEVHQTFQELGPIFRYDLGGAGMVCVMLPEDVEKLQQVDSLHPHRMSLEPWVAYRQHRGHKCGVFLLNGPEWRFNRLRLNPEVLSPNAVQRFLPMVDAVARDFSQALKKKVLQNARGSLTLDVQPSIFHYTIEASNLALFGERLGLVGHSPSSASLNFLHALEVMFKSTVQLMFMPRSLSRWTSPKVWKEHFEAWDCIFQYGDNCIQKIYQELAFSRPQQYTSIVAELLLNAELSPDAIKANSMELTAGSVDTTVFPLLMTLFELARNPNVQQALRQESLAAAASISEHPQKATTELPLLRAALKETLRLYPVGLFLERVASSDLVLQNYHIPAGTLVRVFLYSLGRNPALFPRPERYNPQRWLDIRGSGRNFYHVPFGFGMRQCLGRRLAEAEMLLLLHHVLKHLQVETLTQEDIKMVYSFILRPSMFPLLTFRAIN

binding [1]: no binding
B6: steroid-20,22-lyase (CYP11A1) (enzyme, UniProt P05108 40-521)
chain: ISTRSPRPFNEIPSPGDNGWLNLYHFWRETGTHKVHLHHVQNFQKYGPIYREKLGNVESVYVIDPEDVALLFKSEGPNPERFLIPPWVAYHQYYQRPIGVLLKKSAAWKKDRVALNQEVMAPEATKNFLPLLDAVSRDFVSVLHRRIKKAGSGNYSGDISDDLFRFAFESITNVIFGERQGMLEEVVNPEAQRFIDAIYQMFHTSVPMLNLPPDLFRLFRTKTWKDHVAAWDVIFSKADIYTQNFYWELRQKGSVHHDYRGILYRLLGDSKMSFEDIKANVTEMLAGGVDTTSMTLQWHLYEMARNLKVQDMLRAEVLAARHQAQGDMATMLQLVPLLKASIKETLRLHPISVTLQRYLVNDLVLRDYMIPAKTLVQVAIYALGREPTFFFDPENFDPTRWLSKDKNITYFRNLGFGWGVRQCLGRRIAELEMTIFLINMLENFRVEIQHLSDVGTTFNLILMPEKPISFTFWPFNQEATQQ
